This is one part of the list. These are further read-outs of the screen, such as a control signal, another cell line or another target. No call is given for them. Most of these compounds were active or inconclusive in the main read-out, so they are no random draw. Words in brackets tell the shape of the fitted curve; partial curves, single points and poor fits give uncertain potencies.
Assay: qHTS Assay for Lipid Storage Modulators in Drosophila S3 Cells;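 for cell number change: cells counted by Cell Tracker Red CMTPX staining in the red channel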
Details: BODIPY lipid droplet fluorescence, 18-24 h; for cell number change: measured here: cell count max response, cells fed with added oleic acid
Procedure, shortened: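 Drosophila S3 cells got compounds at several concentrations plus oleic acid (400 uM solution). Laser-scanning cytometry with 488 nm excitation read lipid droplets at 500-530 nm and cells at 575-640 nm. Percent activity was relative to 20 uM Triacsin C.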

[1] = measured here: cell number channel AC50, cells fed with added oleic acid
[2] = measured here: lipid fluorescence (Fed channel) AC50, cells fed with added oleic acid

| Compound | cell number change [%] | AC50 [1] | AC50 [2] |
| --- | --- | --- | --- |
| CCOCCCn1c(=N)c(S(=O)(=O)c2ccc(C)cc2)cc2c(=O)n3cc(C)ccc3nc21 | -13.3 | 0.058 µM [falling, full curve, poor fit] | – |
| CCOC(=O)/C(C#N)=C/c1ccc(OC)c(OC)c1 | 1.06 | – | 0.146 µM [falling, full curve, poor fit] |
| O=C(CCNS(=O)(=O)c1cccs1)NCc1ccco1 | 27.4 | – | 4.11 µM [rising, partial curve, poor fit] |
| O=C(O)c1nn(CC(=O)N2CCCCCC2)c(=O)c2ccccc12 | 2.28 | 0.651 µM [falling, partial curve, poor fit] | 0.651 µM [falling, partial curve, poor fit] |
| O=C(Cn1nc(-c2ccco2)ccc1=O)Nc1cc(C(F)(F)F)ccc1Cl | – | – | 29.1 µM [rising, single point] |
| Cc1nc2ccc(-c3nc4cc(N)ccc4o3)cc2[nH]1 | – | 0.651 µM [rising, full curve] | – |
| COc1ccc(CCN2CC(C(=O)Nc3ccc(S(C)(=O)=O)cc3)CC2=O)cc1OC (stereo unspecified) | 1.54 | – | 8.2 µM [rising, partial curve, poor fit] |
| CC1CCCC(NC(=O)COC(=O)Cc2c[nH]c3ccccc23)C1C (stereo unspecified) | -14.7 | – | 6.51 µM [falling, full curve, poor fit] |
| Cc1ccc(C(=O)N2CC3(C(C)C)CN(C(=O)c4ccc(C)cc4)CC(C(C)C)(C2)C3=O)cc1 | 24.6 | – | 29.1 µM [rising, single point] |
| CCCn1c(Nc2ccc(Cl)cc2)nc2ccccc21 | 0.999 | – | – |
| N#CC(C(=O)OC1CCCCC1)c1nc2ccccc2nc1N1CCOCC1 (stereo unspecified) | 22.5 | 3.66 µM [rising, single point] | 0.0731 µM [falling, full curve, poor fit] |
| O=C(O)c1nccnc1C(=O)NCCc1c[nH]c2ccccc12 | 80.9 | 29.1 µM [rising, partial curve, poor fit] | – |
| COc1ccc(OC)c(NC(=O)Cn2c(=O)oc3ccccc32)c1 | 1.63 | – | 0.00517 µM [rising, full curve, poor fit] |
| COc1ccc(S(=O)(=O)N2c3ccccc3OCC2CC(=O)O)cc1 (stereo unspecified) | -27.1 | – | 20.6 µM [falling, partial curve, poor fit] |
| Cc1csc2nc(O)c(C(=O)NCCC3=CCCCC3)c(=O)n12 | -11.8 | – | – |
| Cc1nnsc1C(=O)NC1CCCc2c1cnn2-c1cc(F)cc(F)c1 (stereo unspecified) | -49 | 20.6 µM [falling, single point] | 13 µM [falling, partial curve, poor fit] |

Quoted at random: 2 records from the list.

| Compound | cell number change [%] | AC50 [1] | AC50 [2] |
| --- | --- | --- | --- |
| Cc1nnsc1C(=O)NC1CCCc2c1cnn2-c1cc(F)cc(F)c1 (stereo unspecified) | -49 | 20.6 µM [falling, single point] | 13 µM [falling, partial curve, poor fit] |
| COc1ccc(CCN2CC(C(=O)Nc3ccc(S(C)(=O)=O)cc3)CC2=O)cc1OC (stereo unspecified) | 1.54 | – | 8.2 µM [rising, partial curve, poor fit] |
